Source: publication PMC6746821
These are yes or no findings as the source states them, for the method shown. In cells and extracts the contact can be indirect. Some binding calls cover weakened binding; strength is not graded here.

The chains behind the UniProt entries cited, without tags or fusion partners.
UniProt O75530: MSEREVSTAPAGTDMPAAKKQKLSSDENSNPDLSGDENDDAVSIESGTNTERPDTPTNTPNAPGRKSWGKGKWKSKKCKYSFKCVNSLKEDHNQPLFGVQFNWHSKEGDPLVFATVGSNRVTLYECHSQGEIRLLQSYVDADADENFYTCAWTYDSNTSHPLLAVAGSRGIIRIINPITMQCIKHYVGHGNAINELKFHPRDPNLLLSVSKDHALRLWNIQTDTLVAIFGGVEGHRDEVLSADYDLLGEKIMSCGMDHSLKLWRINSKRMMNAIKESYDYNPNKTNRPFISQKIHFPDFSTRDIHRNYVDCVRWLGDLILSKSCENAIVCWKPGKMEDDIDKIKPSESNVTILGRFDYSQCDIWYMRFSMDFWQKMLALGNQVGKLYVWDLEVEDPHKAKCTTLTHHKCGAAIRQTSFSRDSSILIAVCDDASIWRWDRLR
UniProt Q15022: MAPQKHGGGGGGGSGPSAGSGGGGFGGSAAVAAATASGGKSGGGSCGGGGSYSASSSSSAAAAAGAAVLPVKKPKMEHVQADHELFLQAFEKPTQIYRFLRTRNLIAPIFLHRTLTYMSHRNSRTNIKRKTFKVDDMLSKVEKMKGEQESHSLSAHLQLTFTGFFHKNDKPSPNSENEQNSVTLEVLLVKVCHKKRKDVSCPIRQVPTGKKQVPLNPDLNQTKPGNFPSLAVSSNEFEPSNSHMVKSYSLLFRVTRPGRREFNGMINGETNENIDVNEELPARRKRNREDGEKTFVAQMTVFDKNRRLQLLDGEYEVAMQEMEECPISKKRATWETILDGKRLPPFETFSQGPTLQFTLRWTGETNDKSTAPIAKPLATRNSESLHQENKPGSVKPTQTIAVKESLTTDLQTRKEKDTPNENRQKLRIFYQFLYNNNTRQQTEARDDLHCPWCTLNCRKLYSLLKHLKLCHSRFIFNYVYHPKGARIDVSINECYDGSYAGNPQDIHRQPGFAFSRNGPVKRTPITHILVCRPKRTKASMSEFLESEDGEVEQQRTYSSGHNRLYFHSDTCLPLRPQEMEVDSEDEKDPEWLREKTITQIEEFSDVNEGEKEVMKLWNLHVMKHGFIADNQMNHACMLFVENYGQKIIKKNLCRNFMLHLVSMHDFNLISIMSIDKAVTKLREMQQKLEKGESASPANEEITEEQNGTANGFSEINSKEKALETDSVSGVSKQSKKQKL

T1: Protein kinase C (PKC)-interacting cousin of thioredoxin (PICOT) (human (endogenous in Jurkat)) (UniProt O76003)
T1 sequence: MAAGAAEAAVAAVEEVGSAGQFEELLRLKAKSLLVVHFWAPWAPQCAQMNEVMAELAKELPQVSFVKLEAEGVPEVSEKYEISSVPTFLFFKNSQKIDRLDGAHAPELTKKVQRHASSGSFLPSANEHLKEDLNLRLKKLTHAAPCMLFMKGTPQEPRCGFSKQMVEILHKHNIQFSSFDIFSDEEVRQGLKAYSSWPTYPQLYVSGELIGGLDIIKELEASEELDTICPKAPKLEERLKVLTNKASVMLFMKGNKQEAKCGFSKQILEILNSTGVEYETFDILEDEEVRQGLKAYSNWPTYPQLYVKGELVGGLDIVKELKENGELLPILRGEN


Assays:
[1] = molecular target: T1, Protein kinase C (PKC)-interacting cousin of thioredoxin (PICOT) (human (endogenous in Jurkat)); assay: co-IP; protein-protein ChIP: Jurkat cells fixed in 1% formaldehyde for 10 min, sonicated chromatin lysate, precleared, incubated overnight at 4 °C with protein G-sepharose bead-immobilized mouse anti-PICOT mAbs or normal mouse IgG; washes with low-salt, high-salt, LiCl and Tris-EDTA buffers; immunoblot
[2] = molecular target: embryonic ectoderm development (EED) protein (human (endogenous in Jurkat)) (UniProt O75530); assay: co-IP; reciprocal protein-protein ChIP: Jurkat T cell chromatin lysates, immunoprecipitation with anti-EED Abs; immunoblot for PICOT and EZH2

binding [1]	binding [2]	Molecule
no binding		SUZ12 (from UniProt Q15022 1-739)
binds		embryonic ectoderm development (EED) protein (from UniProt O75530 1-441)
	binds	Protein kinase C (PKC)-interacting cousin of thioredoxin (PICOT) (protein, UniProt O76003 1-335) MAAGAAEAAVAAVEEVGSAGQFEELLRLKAKSLLVVHFWAPWAPQCAQMNEVMAELAKELPQVSFVKLEAEGVPEVSEKYEISSVPTFLFFKNSQKIDRLDGAHAPELTKKVQRHASSGSFLPSANEHLKEDLNLRLKKLTHAAPCMLFMKGTPQEPRCGFSKQMVEILHKHNIQFSSFDIFSDEEVRQGLKAYSSWPTYPQLYVSGELIGGLDIIKELEASEELDTICPKAPKLEERLKVLTNKASVMLFMKGNKQEAKCGFSKQILEILNSTGVEYETFDILEDEEVRQGLKAYSNWPTYPQLYVKGELVGGLDIVKELKENGELLPILRGEN
